The results in this text go back to the supplement of paper PMC9135407.

The test system of this assay is primary human hepatic stellate cells (donor 1). The experiment in a line: percent Bodipy-positive cells; higher = more lipid droplet accumulation. Conditions: 48 h.
[1] abbreviates: library stock concentration: 3.33 mM.
Where [2] appears, read: library stock concentration: 10 mM.
Where [3] appears, read: library stock concentration: 1 mM.

Values joined by “and” are separate entries in the source; they are usually repeats but may differ in a detail not shown here. Equal entries are not always repeated. Structures can show the parent of a compound that is named as a salt. ± gives the standard deviation of the averaged measurements. Some of the results follow. Part of the spread comes from offsets between plates or batches.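 Assay uses culture-activated primary human stellate myofibroblasts; lipid droplet recovery indicates inactivation. Measured: proportion of Hoechst-counted cells over a plate-specific Bodipy cutoff, duplicate wells, DMSO and nortriptyline as per-plate negative and positive controls. A hit scores, control-normalized, above the plate's top-tenth-percentile nortriptyline wells or ranks among its three best wells. Final well concentrations not reported.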

On to `CCNC(=O)c1noc(-c2cc(Cl)c(O)cc2O)c1-c1ccc(OC)cc1`, for which the “percent Bodipy-positive cells” value runs as follows: under setting [1], 85.04 ± 0.56%; under setting [2], 87.5 ± 1.2%.

Consider `CCN(CC)CCCCNc1ncc2cc(-c3c(Cl)cccc3Cl)c(NC(=O)NC(C)(C)C)nc2n1`, for which the “percent Bodipy-positive cells” value under setting [2] was 90.8 ± 2.4%. For the molecule `CN=C(N)NCCC[C@H](N)C(=O)O` [L-Ornithine, N5-[imino(methylamino)methyl]-[CAS]], the “percent Bodipy-positive cells” value under setting [2] came to 12.8 ± 3.1%. `OCc1ccccc1`: the “percent Bodipy-positive cells” value under setting [2] is 34.7 ± 8.9%.

For the molecule `CNC(=C[N+](=O)[O-])NCCSCc1csc(CN(C)C)n1`, the “percent Bodipy-positive cells” value under setting [2] amounted to 20 ± 4%. Consider `CNC(=C[N+](=O)[O-])NCCSCc1csc(CN(C)C)n1` [Nizatidine], for which the “percent Bodipy-positive cells” value came out at 9.4 ± 0.8%. In addition, under setting [1], the “percent Bodipy-positive cells” value came out at 12 ± 5.6%. Also, for the setting “library stock concentration: 6 mM”, the “percent Bodipy-positive cells” value turned out to be 3.19 ± 0.93%. For the same molecule, under setting [2], the “percent Bodipy-positive cells” value turned out to be 20.1 ± 4%. As to `Cc1nc(Nc2n[nH]c3c2CN(C(=O)N[C@H](CN(C)C)c2ccccc2)C3(C)C)c2sccc2n1`, under setting [2], the “percent Bodipy-positive cells” value was determined as 79.5 ± 9.7%. On to `CC(C)CN(C[C@@H](O)[C@H](Cc1ccccc1)NC(=O)O[C@H]1CCOC1)S(=O)(=O)c1ccc(N)cc1` [Amprenavir], for which the “percent Bodipy-positive cells” value turned out to be 6.91 ± 4.9% under setting [1], 9.92 ± 3.6% (library stock concentration: 4 mM) and 15.8 ± 3.2% under setting [2].

Regarding `CCn1c(=O)[nH]c2ccccc21`, under setting [2], the “percent Bodipy-positive cells” value turned out to be 8.55 ± 2.5%.

As to `CN(C)S(=O)(=O)c1ccc2c(c1)/C(=C/c1cc3c([nH]1)CCCC3)C(=O)N2`, the “percent Bodipy-positive cells” value under setting [3] turned out to be 55.6 ± 3.5%.

`CCC1=C[C@@H]2CN(C1)Cc1c([nH]c3ccccc13)[C@@](C(=O)OC)(c1cc3c(cc1OC)N(C)[C@H]1[C@@](O)(C(=O)OC)[C@H](OC(C)=O)[C@]4(CC)C=CCN5CC[C@]31[C@@H]54)C2` [Vinorelbine]: the “percent Bodipy-positive cells” value (library stock concentration: 2.6 mM) is 61.6 ± 5%. Turning to `O=C(O)CCCCCC[C@H]1C(=O)C[C@@H](O)[C@@H]1/C=C/[C@@H](O)Cc1ccccc1` [16-phenyl tetranor Prostaglandin E1], the “percent Bodipy-positive cells” value under setting [3] is 28.5 ± 9.4%.

Consider `NCC(O)c1ccc(O)c(O)c1` (stereo unspecified), for which the “percent Bodipy-positive cells” value under setting [2] is 46.2 ± 14%. Consider `O=c1ccc2c(OCCCCc3ccccc3)c3ccoc3cc2o1` [Psora-4], for which the “percent Bodipy-positive cells” value under setting [2] came to 47.6 ± 15%. `C=CC(=O)Nc1cccc(Nc2nc(Nc3ccc(NC4CN(CCF)C4)cc3OC)ncc2C(F)(F)F)c1`: the “percent Bodipy-positive cells” value under setting [1] turned out to be 48.8 ± 7.1% and the “percent Bodipy-positive cells” value under setting [2] was 92.9 ± 3.7%. Consider `COCC(=O)NC/C=C/c1ccc2ncnc(Nc3ccc(Oc4ccc(C)nc4)c(C)c3)c2c1`, for which the “percent Bodipy-positive cells” value under setting [2] was determined as 98.87 ± 0.33%. With `CCn1cc(C(=O)O)c(=O)c2cc(F)c(N3CCNC(C)C3)c(F)c21` (stereo unspecified) [Lomefloxacin HCl], the “percent Bodipy-positive cells” value (library stock concentration: 5.7 mM) was 7.25 ± 1.9%.

For the molecule `CCn1cc(C(=O)O)c(=O)c2cc(F)c(N3CCNC(C)C3)c(F)c21` (stereo unspecified) [Lomefloxacin hydrochloride], the “percent Bodipy-positive cells” value was 20.1 ± 0.68%. Moreover, the “percent Bodipy-positive cells” value (library stock concentration: 5.2 mM) was determined as 11.9 ± 1.3%. In addition, the “percent Bodipy-positive cells” value under setting [2] is 23.8% and 19.5%. Take `NC(=O)c1cc[n+](CC2=C(C(=O)O)N3C(=O)[C@@H](NC(=O)C(c4ccccc4)S(=O)(=O)[O-])[C@H]3SC2)cc1` (stereo partly specified) [Cefsulodin sodium salt hydrate]: the “percent Bodipy-positive cells” value under setting [2] was 31.8 ± 5.3%. Regarding `CS(=O)(=O)Nc1ccc([N+](=O)[O-])cc1Oc1ccccc1` [Nimesulide], the “percent Bodipy-positive cells” value came to 22.7 ± 1%. The “percent Bodipy-positive cells” value under setting [3] turned out to be 8.36 ± 1.9%. Under setting [1], the “percent Bodipy-positive cells” value was found to be 8.07 ± 0.69%. In addition, the “percent Bodipy-positive cells” value (library stock concentration: 16.2 mM) is 17.9 ± 1.8%.

In the case of `COc1cc(C)nc(-n2nc(C)cc2OC)n1` [Epirizole], the “percent Bodipy-positive cells” value is 26.4 ± 13%. Take `COc1cc(C)nc(-n2nc(C)cc2OC)n1`: the “percent Bodipy-positive cells” value under setting [2] amounted to 6.34 ± 0.65%. With `CCOC(=O)CCC(=O)O[C@H]1[C@H](O[C@@H]2[C@@H](C)[C@H](O[C@H]3C[C@@](C)(OC)[C@@H](O)[C@H](C)O3)[C@@H](C)C(=O)O[C@H](CC)[C@@](C)(O)[C@H](O)[C@@H](C)C(=O)[C@H](C)C[C@@]2(C)O)O[C@H](C)C[C@@H]1N(C)C` [Eryped], the “percent Bodipy-positive cells” value under setting [2] was 33.5 ± 4.9%.

For `CCOC(=O)CCC(=O)O[C@H]1[C@H](O[C@@H]2[C@@H](C)[C@H](O[C@H]3C[C@@](C)(OC)[C@@H](O)[C@H](C)O3)[C@@H](C)C(=O)O[C@H](CC)[C@@](C)(O)[C@H](O)[C@@H](C)C(=O)[C@H](C)C[C@@]2(C)O)O[C@H](C)C[C@@H]1N(C)C` [Erythromycin ethylsuccinate], the “percent Bodipy-positive cells” value reads like this: (library stock concentration: 2.3 mM) 3.93 ± 0.99%; under setting [2], 34.1 ± 0.71%.

For the molecule `COc1cc(NC(=O)c2ccc(-c3ccc(Cl)cc3)o2)cc(OC)c1`, the “percent Bodipy-positive cells” value by setting is: under setting [1], 14.9 ± 6.6%; under setting [2], 49.5 ± 4.5%. As for `CC(C)C(=O)Nc1ncc(-c2cc(C(F)F)nn2-c2c(Cl)cccc2Cl)s1`, under setting [2], the “percent Bodipy-positive cells” value was 86.8 ± 6.6%.

In the case of `Nc1ncnc2nc(-c3ccc(N4CCOCC4)nc3)cc(-c3cccc(Br)c3)c12`, the “percent Bodipy-positive cells” value is, setting by setting: (library stock concentration: 80 uM) 13.3 ± 0.18%; (library stock concentration: 400 uM) 18.5 ± 2.9%; (library stock concentration: 2 mM) 13 ± 0.53%.

`Nc1ncnc2nc(-c3ccc(N4CCOCC4)nc3)cc(-c3cccc(Br)c3)c12` [ABT 702 dihydrochloride]: under setting [2], the “percent Bodipy-positive cells” value stood at 27.5 ± 5.2%. As for `c1ccc2c(Oc3nc(Nc4ccc(N5CCOCC5)cc4)c4ncn(C5CCCCC5)c4n3)cccc2c1` [Purmorphamine], the “percent Bodipy-positive cells” value under setting [3] turned out to be 13.3 ± 4.3%, the “percent Bodipy-positive cells” value under setting [1] came out at 7.06 ± 5.7% and the “percent Bodipy-positive cells” value under setting [2] amounted to 10.7 ± 3.8%. In the case of `C[C@]12C=CC(=O)C=C1CC[C@@H]1[C@@H]2C(=O)C[C@@]2(C)[C@H]1CC[C@]2(O)C(=O)CO` [Prednisone], the “percent Bodipy-positive cells” value was found to be 28.7 ± 9.4%. Also, the “percent Bodipy-positive cells” value under setting [1] was found to be 8.47 ± 0.45%. Moreover, the “percent Bodipy-positive cells” value under setting [2] is 9.34% and 14.9% and 31.3%. For the molecule `C=CCn1c(=O)n([C@@H]2O[C@H](CO)[C@@H](O)[C@H]2O)c2nc(N)[nH]c(=O)c21`, under setting [2], the “percent Bodipy-positive cells” value is 4.91 ± 0.15%. On the same count and under the same terms, the value for `C[C@]12C=CC(=O)C=C1CC[C@@H]1C2=CC[C@]2(C)[C@@H](C(=O)CN3CCN(c4cc(N5CCCC5)nc(N5CCCC5)n4)CC3)CC[C@@H]12` was 32.5 ± 7.2%. Turning to `COc1cc2nccc(Oc3ccc(NC(=O)Nc4ccc(F)cc4F)c(F)c3)c2cc1OC`, the “percent Bodipy-positive cells” value under setting [1] is 51.2 ± 10%.

For the molecule `CN1CCN(C2=Nc3ccccc3Sc3ccc(Cl)cc32)CC1` [Clothiapine], the “percent Bodipy-positive cells” value (library stock concentration: 5.8 mM) amounted to 37.2 ± 4.5%. Turning to `CC1(C)[C@@H](O[C@H]2O[C@H](C(=O)O)[C@@H](O)[C@H](O)[C@H]2O[C@@H]2O[C@H](C(=O)O)[C@@H](O)[C@H](O)[C@H]2O)CC[C@]2(C)[C@H]3C(=O)C=C4[C@@H]5C[C@@](C)(C(=O)O)CC[C@]5(C)CC[C@@]4(C)[C@]3(C)CC[C@@H]12` [Ammonium Glycyrrhizinate], the “percent Bodipy-positive cells” value under setting [1] worked out at 5.87 ± 3% and the “percent Bodipy-positive cells” value under setting [2] was 21.8 ± 6.5%.
